Measured data: PubChem BioAssay AID1224826 (NIAID, 2016)

- Screen: 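Regulators of Tlr4 signalling leading to Tnf-alpha expression in macrophages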 (primary screen)
- System: RAW264.7 G9 macrophages from mouse bearing reporters for p65 (GFP) and the Tnf promoter (mCherry)
- Reagents: siRNA pool against mouse genes, 100 nM
- Duration: 16 h of LPS stimulation, after 2 days of siRNA transfection
- Treatment: bacterial lipopolysaccharide (Salmonella minnesota R595), 10 ng/ml
- Read-out: 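Imaged Tnf reporter mCherry in nuclei, minus background, normalised per plate to the median and expressed as robust z-scores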
- Scale: Tnf reporter robust z-score: higher = stronger Tnf promoter reporter signal after LPS; Tnf reporter intensity: higher = stronger Tnf promoter reporter signal
- Rule for the call: 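a well counts as active at a score of -1.3 or below (Tlr4 knock-down control median) or above 3 (raised signal); controls and wells holding fewer than 50 cells are excluded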
- Calls: active = Tnf reporter clearly lowered or raised; inactive = no clear change in Tnf reporter
The deposit covers about 17,000 reagents; this is a random part of them. About 1,110 of them (6.6%) were called active. 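Active means lowered or raised reporter signal; replicate intensities are raw and not normalised per plate.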 Entries without a mark were called inactive.

no.	target	Tnf reporter robust z-score	fewer than 50 cells in well	Tnf reporter intensity, replicate 1	Tnf reporter intensity, replicate 2
1	Tm4sf20 (GeneID 66261)	-1.09	enough cells in well	132	54
2	Fancb (GeneID 237211)	0.59	enough cells in well	234	264
3	Fbxw5 (GeneID 30839)	0.8	enough cells in well	235	227
4	Rpl37 (GeneID 67281)	-0.65	enough cells in well	241	161
5	Rnf126 (GeneID 70294)	-1.61 (active)	enough cells in well	65.4	51.5
6	Zfp790 (GeneID 233056)	1.53	enough cells in well	275	216
7	Or7c70 (GeneID 258305)	0.79	enough cells in well	172	193
8	Zkscan2 (GeneID 210162)	-0.9	enough cells in well	144	112

Next part (3 carried over from the part before).
no.	target	Tnf reporter robust z-score	fewer than 50 cells in well	Tnf reporter intensity, replicate 1	Tnf reporter intensity, replicate 2
6	Zfp790 (GeneID 233056)	1.53	enough cells in well	275	216
7	Or7c70 (GeneID 258305)	0.79	enough cells in well	172	193
8	Zkscan2 (GeneID 210162)	-0.9	enough cells in well	144	112
9	Tmcc2 (GeneID 68875)	3.48 (active)	enough cells in well	355	187
10	Slc44a4 (GeneID 70129)		fewer than 50 cells per well; well left out of calls	154	33.7
11	Fhip2a (GeneID 226252)	2.04	enough cells in well	344	320
12	Cd300lb (GeneID 217304)	0.72	enough cells in well	272	255
13	Magt1 (GeneID 67075)	2.42	enough cells in well	364	155
14	Apcdd1 (GeneID 494504)	-0.14	enough cells in well	146	164
15	Impdh1 (GeneID 23917)	0.33	enough cells in well	229	194
16	Or4d10c (GeneID 258805)	2.41	enough cells in well	301	237
17	Dus3l (GeneID 224907)	-0.92	enough cells in well	113	106
18	Tas2r105 (GeneID 57252)	0.53	enough cells in well	138	63
19	Dock6 (GeneID 319899)	1.42	enough cells in well	121	245
20	Rims4 (GeneID 241770)	-0.48	enough cells in well	113	101
21	Esyt3 (GeneID 272636)		fewer than 50 cells per well; well left out of calls	88.9	88.1
22	Abcd3 (GeneID 19299)	-0.22	enough cells in well	151	148
23	Pabpc5 (GeneID 93728)	-0.05	enough cells in well	138	129
24	Rab6b (GeneID 270192)	-1.02	enough cells in well	181	117
